Measurements: publication PMC6028955
These are yes or no findings as the source states them, for the method shown.

Amino acid sequences for entries named in this document (tags omitted). A change or cut given only in a name is not applied to a line headed by its entry.
UniProt Q54G78: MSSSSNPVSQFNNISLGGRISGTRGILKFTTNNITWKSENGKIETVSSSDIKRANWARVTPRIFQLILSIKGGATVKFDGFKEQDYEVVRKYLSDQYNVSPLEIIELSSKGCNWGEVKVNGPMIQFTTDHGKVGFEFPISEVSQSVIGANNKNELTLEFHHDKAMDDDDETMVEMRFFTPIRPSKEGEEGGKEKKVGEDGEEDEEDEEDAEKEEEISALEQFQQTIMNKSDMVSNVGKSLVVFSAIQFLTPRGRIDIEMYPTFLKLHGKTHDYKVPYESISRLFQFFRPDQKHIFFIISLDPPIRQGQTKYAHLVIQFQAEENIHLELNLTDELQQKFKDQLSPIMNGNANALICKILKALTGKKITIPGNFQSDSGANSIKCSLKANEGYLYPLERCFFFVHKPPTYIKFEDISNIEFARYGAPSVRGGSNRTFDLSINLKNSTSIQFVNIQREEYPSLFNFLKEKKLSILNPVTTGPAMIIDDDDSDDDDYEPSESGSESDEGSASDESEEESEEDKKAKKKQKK
UniProt Q54S43: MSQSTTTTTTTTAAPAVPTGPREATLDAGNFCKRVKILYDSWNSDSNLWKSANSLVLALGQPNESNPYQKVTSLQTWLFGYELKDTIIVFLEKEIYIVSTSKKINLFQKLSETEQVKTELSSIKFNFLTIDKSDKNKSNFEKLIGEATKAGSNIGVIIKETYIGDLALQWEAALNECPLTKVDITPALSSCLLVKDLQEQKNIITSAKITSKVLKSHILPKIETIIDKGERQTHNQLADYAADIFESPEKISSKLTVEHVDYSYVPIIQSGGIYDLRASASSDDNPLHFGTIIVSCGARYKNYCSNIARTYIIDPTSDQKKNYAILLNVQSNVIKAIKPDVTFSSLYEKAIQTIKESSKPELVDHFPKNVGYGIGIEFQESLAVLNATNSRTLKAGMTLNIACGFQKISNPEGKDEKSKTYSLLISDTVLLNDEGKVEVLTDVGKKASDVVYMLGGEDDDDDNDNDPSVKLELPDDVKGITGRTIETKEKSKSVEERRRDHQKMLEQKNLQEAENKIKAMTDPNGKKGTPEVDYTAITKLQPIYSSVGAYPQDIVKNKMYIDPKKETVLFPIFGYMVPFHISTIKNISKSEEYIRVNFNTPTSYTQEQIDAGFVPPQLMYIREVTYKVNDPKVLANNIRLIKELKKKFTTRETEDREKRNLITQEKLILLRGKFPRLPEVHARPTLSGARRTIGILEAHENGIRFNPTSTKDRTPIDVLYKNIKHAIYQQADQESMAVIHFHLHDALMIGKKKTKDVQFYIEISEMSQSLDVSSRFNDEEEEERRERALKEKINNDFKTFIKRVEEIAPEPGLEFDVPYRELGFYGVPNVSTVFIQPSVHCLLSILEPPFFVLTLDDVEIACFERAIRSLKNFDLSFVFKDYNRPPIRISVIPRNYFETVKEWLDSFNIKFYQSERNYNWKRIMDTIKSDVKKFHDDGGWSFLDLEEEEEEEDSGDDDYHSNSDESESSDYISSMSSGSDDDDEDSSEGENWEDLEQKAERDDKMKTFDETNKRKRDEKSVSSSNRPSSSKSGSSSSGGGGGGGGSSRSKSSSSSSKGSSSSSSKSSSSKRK

Target: DdFACT complex (DdSSRP1 residues 1–478 with DdSpt16 residues 1–955) (Dictyostelium discoideum) (UniProt Q54G78+Q54S43)
Assay: AUC; sedimentation velocity (4 °C, 49,000 rpm) and sedimentation equilibrium; 25 mM Tris-HCl pH 7.6, 200 mM NaCl, 2 mM TCEP; SE fitted with a single species model; both purified

- binding: no binding (tested: 0.5 and 0.2 mg/ml)
Substance: DdFACT complex (DdSSRP1 residues 1–478 with DdSpt16 residues 1–955) (from UniProt Q54G78 1-478; Q54S43 1-955)
